This is an account of results in article PMC8899535.

Sequences of proteins named here, by UniProt entry; tags and fusion partners are left off. A change or cut given only in a name is not applied to a line headed by its entry.
UniProt B7EQT4: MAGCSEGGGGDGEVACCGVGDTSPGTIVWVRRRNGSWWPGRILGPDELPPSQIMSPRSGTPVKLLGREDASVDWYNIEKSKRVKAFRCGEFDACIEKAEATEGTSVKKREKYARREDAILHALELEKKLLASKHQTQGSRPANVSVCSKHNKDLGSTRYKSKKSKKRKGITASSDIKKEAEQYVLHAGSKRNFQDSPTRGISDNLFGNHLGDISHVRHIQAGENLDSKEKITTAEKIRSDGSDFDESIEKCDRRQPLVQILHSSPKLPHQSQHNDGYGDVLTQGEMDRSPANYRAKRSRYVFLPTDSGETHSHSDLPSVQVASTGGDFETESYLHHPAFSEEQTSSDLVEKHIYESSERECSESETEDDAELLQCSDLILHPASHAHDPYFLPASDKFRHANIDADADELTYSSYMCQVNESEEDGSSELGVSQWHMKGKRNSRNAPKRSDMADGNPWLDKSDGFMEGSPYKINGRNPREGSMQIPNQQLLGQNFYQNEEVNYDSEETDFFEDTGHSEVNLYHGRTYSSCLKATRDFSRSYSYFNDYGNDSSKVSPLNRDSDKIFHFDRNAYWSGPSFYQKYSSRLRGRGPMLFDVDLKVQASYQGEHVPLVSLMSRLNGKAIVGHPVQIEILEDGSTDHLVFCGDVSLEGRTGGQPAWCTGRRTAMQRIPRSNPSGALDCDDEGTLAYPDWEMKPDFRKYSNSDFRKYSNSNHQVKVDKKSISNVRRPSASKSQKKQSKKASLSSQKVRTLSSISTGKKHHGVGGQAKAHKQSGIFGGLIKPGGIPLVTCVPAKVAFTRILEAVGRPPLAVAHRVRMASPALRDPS
UniProt A0A0P0V419: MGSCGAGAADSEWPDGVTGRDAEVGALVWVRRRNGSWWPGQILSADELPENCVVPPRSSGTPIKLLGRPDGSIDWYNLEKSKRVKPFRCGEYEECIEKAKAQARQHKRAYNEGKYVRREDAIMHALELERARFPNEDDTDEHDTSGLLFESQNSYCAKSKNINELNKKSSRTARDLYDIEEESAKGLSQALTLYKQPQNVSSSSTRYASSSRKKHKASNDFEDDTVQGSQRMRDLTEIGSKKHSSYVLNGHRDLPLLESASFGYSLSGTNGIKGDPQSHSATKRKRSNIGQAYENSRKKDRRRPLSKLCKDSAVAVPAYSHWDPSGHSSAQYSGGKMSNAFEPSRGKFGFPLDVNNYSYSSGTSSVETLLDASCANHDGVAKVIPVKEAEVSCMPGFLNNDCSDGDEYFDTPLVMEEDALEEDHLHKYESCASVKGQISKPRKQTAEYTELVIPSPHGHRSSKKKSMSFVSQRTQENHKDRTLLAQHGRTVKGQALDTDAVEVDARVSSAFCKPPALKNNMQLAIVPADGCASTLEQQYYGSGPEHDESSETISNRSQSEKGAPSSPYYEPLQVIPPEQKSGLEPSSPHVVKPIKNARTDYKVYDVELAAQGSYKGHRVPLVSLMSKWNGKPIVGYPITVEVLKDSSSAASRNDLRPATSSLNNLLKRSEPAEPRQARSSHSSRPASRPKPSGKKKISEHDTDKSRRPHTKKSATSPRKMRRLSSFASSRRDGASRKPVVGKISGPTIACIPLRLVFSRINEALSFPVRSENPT

These are yes or no findings as the source states them, for the method shown. Binding seen in cells or lysates may run through a third protein. Binding calls can cover weak binding; strength is not graded here.

This test has as its target T1, YC-OsTZF7 (rice (Oryza sativa, cultivar Nipponbare)) (UniProt Q65X92).
T1 sequence: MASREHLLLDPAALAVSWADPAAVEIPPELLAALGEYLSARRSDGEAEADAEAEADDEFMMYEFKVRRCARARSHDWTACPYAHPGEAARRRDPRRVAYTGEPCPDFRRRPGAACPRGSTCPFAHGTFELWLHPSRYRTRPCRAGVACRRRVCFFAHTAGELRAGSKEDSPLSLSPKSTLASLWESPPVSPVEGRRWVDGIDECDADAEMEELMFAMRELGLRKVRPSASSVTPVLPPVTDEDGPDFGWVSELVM
Put plainly: split reporter; BiFC with YN and YC fragments of YFP, transient expression in tobacco leaf epidermal cells, confocal microscopy.
Turning to YN-OsPWWP1 (from UniProt B7EQT4), the binding entry is “binds”. In the case of YN-OsPWWP3 (from UniProt A0A0P0V419) it was “binds”; in that of YN-OsPWWP2 (rice), “binds”.
